PubChem BioAssay AID1259308 | NCATS, 2017
Test: 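Candidate targets for better recombinant protein yield in mammalian cells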 (primary screen). System: human HEK293 embryonic kidney cells stably expressing firefly luciferase (HEK-CMV-Luc2-Hygro). Reagent: single siRNA against human genes, 0.8 pmol siRNA per well. Duration: 72 h. Measurement: 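Luciferase light (ONE-Glo) measured on one replicate plate set and viability (CellTiter-Glo) on the other, scaled to a negative control siRNA, with robust z-scores and luciferase per cell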. Direction: total luciferase, z-score and total luciferase, % of control: higher = more reporter protein produced. Hit rule: 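An siRNA counts as active if its total luciferase robust z-score exceeds 3; genes with two or more such siRNAs out of three were retested with fresh siRNAs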. Meaning of the calls: active = raised luciferase; inactive = no rise.
This is one part, drawn at random, of about 59,000 deposited reagents. About 1,510 of them (2.6%) count as active. 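Calls use total luciferase alone and ignore viability, so some active siRNAs may act by altering cell number.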 A number with no mark means an inactive call. The numbers tell different reagents against one gene apart. Not all columns of the deposit are shown.

SYDE1 #1: total luciferase, z-score = -0.594; total luciferase, % of control = 70.1
SYDE1 #2: total luciferase, z-score = 0.0626; total luciferase, % of control = 83.1
SYDE1 #3: total luciferase, z-score = -0.276; total luciferase, % of control = 76.4
OR8S1 #1: total luciferase, z-score = -1.44; total luciferase, % of control = 53.3
OR8S1 #2: total luciferase, z-score = -0.681; total luciferase, % of control = 68.3
OR8S1 #3: total luciferase, z-score = 2.4; total luciferase, % of control = 130
ESF1 #1: total luciferase, z-score = -1.9; total luciferase, % of control = 44.1
ESF1 #2: total luciferase, z-score = 0.46; total luciferase, % of control = 91
ESF1 #3: total luciferase, z-score = -0.58; total luciferase, % of control = 70.4
TSPAN4 #1: total luciferase, z-score = 1.33; total luciferase, % of control = 108
TSPAN4 #2: total luciferase, z-score = -0.00503; total luciferase, % of control = 81.8
TSPAN4 #3: total luciferase, z-score = -0.235; total luciferase, % of control = 77.2
FAM120A #1: total luciferase, z-score = 0.172; total luciferase, % of control = 85.3
FAM120A #2: total luciferase, z-score = -0.134; total luciferase, % of control = 79.2
FAM120A #3: total luciferase, z-score = -0.736; total luciferase, % of control = 67.2
SEMA3C #1: total luciferase, z-score = 0.774; total luciferase, % of control = 97.3
SEMA3C #2: total luciferase, z-score = 0.354; total luciferase, % of control = 88.9
SEMA3C #3: total luciferase, z-score = 0.217; total luciferase, % of control = 86.2
TRMT2B #1: total luciferase, z-score = 0.0439; total luciferase, % of control = 82.8
TRMT2B #2: total luciferase, z-score = 1.16; total luciferase, % of control = 105
TRMT2B #3: total luciferase, z-score = 0.862; total luciferase, % of control = 99
LOC645485 #1: total luciferase, z-score = -1.48; total luciferase, % of control = 52.5
LOC645485 #2: total luciferase, z-score = -0.0905; total luciferase, % of control = 80.1
LOC645485 #3: total luciferase, z-score = 0.984; total luciferase, % of control = 101
CLIP1 #1: total luciferase, z-score = -1.21; total luciferase, % of control = 57.8
CLIP1 #2: total luciferase, z-score = 0.442; total luciferase, % of control = 90.7
CLIP1 #3: total luciferase, z-score = 0.0698; total luciferase, % of control = 83.3
UQCC1 #1: total luciferase, z-score = 0.284; total luciferase, % of control = 87.5
UQCC1 #2: total luciferase, z-score = 0.573; total luciferase, % of control = 93.3
UQCC1 #3: total luciferase, z-score = -1.18; total luciferase, % of control = 58.5
C1orf115 #1: total luciferase, z-score = -0.556; total luciferase, % of control = 70.8
C1orf115 #2: total luciferase, z-score = -0.706; total luciferase, % of control = 67.8
C1orf115 #3: total luciferase, z-score = 2.65; total luciferase, % of control = 135

Copied from the entries so far, 5 entries:
ESF1 #2: total luciferase, z-score = 0.46; total luciferase, % of control = 91
ESF1 #3: total luciferase, z-score = -0.58; total luciferase, % of control = 70.4
TSPAN4 #1: total luciferase, z-score = 1.33; total luciferase, % of control = 108
TSPAN4 #2: total luciferase, z-score = -0.00503; total luciferase, % of control = 81.8
TSPAN4 #3: total luciferase, z-score = -0.235; total luciferase, % of control = 77.2
